Data: article PMC3681493
These are yes or no findings as the source states them, for the method shown. In cells and extracts the contact can be indirect. Some results given as binding are weak or reduced against the parent protein; the word gives no strength.

Sequences of proteins named here, by UniProt entry; tags and fusion partners are left off. A change or cut given only in a name is not applied to a line headed by its entry.
UniProt P35222: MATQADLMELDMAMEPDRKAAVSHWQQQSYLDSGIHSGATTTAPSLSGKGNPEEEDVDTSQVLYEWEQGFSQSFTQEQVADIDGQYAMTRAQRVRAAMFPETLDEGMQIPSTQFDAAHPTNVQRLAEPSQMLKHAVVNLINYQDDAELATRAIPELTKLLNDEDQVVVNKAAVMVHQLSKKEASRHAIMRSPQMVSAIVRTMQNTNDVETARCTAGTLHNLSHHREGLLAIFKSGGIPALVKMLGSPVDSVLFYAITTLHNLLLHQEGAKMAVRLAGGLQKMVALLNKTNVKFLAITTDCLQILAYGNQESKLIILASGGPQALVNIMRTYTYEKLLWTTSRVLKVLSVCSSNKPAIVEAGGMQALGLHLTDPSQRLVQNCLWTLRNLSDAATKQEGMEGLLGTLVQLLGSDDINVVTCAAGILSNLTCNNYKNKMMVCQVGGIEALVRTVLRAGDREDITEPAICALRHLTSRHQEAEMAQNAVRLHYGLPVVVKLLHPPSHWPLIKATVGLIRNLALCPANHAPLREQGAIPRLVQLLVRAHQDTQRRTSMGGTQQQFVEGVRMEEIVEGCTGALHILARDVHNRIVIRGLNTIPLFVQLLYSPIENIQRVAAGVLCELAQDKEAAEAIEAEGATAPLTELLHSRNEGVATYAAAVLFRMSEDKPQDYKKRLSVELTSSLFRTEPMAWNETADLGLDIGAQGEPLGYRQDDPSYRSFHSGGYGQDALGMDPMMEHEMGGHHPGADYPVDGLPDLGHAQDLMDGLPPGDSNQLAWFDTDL
UniProt Q9NQB0: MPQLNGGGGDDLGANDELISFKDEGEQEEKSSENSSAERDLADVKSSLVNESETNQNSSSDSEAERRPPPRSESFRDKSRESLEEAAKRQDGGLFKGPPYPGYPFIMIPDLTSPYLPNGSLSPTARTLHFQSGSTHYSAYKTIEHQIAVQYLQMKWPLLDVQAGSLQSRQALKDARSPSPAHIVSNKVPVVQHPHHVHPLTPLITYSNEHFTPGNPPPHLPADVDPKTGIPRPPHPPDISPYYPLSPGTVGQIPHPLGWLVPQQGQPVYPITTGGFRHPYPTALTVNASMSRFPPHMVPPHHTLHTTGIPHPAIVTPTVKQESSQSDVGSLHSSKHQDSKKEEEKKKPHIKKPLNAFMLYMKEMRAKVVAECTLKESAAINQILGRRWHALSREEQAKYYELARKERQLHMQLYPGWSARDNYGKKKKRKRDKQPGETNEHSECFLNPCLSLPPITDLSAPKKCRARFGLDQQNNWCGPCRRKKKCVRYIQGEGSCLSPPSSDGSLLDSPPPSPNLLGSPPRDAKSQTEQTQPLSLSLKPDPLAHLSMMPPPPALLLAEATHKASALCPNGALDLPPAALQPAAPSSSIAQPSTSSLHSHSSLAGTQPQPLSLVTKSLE
UniProt Q9BT81: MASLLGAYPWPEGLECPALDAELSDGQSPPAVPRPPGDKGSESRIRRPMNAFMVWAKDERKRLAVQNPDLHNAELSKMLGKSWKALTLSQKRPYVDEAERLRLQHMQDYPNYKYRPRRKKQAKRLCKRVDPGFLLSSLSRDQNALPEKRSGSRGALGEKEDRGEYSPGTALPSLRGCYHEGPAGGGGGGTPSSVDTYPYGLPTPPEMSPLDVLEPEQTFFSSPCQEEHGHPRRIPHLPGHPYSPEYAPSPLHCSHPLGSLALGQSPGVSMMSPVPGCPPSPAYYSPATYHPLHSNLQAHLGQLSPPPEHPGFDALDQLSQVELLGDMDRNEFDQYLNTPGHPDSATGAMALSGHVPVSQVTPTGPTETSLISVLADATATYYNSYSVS

Key:
Assay in all cases: co-IP; HEK293 cells transiently co-transfected with Flag/Sox7 and HA/β-catenin, or GFP/mutant β-catenin, or Myc/TCF4; IgG as control antibody; procedure as in refs 16, 17
[1] = biological target: GFP/mutant β-catenin S37A (UniProt P35222)
[2] = biological target: HA/β-catenin (wild-type β-catenin) (UniProt P35222)
Myc/TCF4 fusion protein = Myc/TCF4 fusion protein (UniProt Q9NQB0)

Measured: binding

Flag-tagged Sox7 fusion protein (from UniProt Q9BT81 1-388)
binds: all assays above
